Assay results reported in publication PMC8818432.
Results are given in words; binding and its absence hold for the method and conditions named. In cells and extracts the contact can be indirect. Some results given as binding are weak or reduced against the parent protein; the word gives no strength.

Molecular target: T1, Polymerase δ-interacting protein 2 (Poldip2) (human (endogenous in A549 and Beas-2B)) (UniProt Q9Y2S7)
T1 sequence: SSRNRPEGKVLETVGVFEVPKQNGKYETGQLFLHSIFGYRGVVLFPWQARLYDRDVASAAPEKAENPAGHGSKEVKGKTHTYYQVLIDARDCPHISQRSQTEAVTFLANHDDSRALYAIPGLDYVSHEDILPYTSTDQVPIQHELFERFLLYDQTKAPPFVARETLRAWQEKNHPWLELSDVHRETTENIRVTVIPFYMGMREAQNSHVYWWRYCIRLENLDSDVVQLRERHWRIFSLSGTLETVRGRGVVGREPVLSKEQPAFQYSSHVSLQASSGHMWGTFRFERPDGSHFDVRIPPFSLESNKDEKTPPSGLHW
Assay: co-IP; endogenous proteins; A549 (10 μg/mL LPS) and Beas-2B (1 μg/mL LPS) cells treated for 12 h; lysates incubated overnight at 4°C with 3 μg anti-Poldip2 antibody or normal rabbit IgG and protein G Mag Sepharose; immunoblot for Nox4 and Poldip2

B1: NADPH oxidase 4 (Nox4) (protein, UniProt Q9NPH5 1-578)
chain: MAVSWRSWLANEGVKHLCLFIWLSMNVLLFWKTFLLYNQGPEYHYLHQMLGLGLCLSRASASVLNLNCSLILLPMCRTLLAYLRGSQKVPSRRTRRLLDKSRTFHITCGVTICIFSGVHVAAHLVNALNFSVNYSEDFVELNAARYRDEDPRKLLFTTVPGLTGVCMVVVLFLMITASTYAIRVSNYDIFWYTHNLFFVFYMLLTLHVSGGLLKYQTNLDTHPPGCISLNRTSSQNISLPEYFSEHFHEPFPEGFSKPAEFTQHKFVKICMEEPRFQANFPQTWLWISGPLCLYCAERLYRYIRSNKPVTIISVMSHPSDVMEIRMVKENFKARPGQYITLHCPSVSALENHPFTLTMCPTETKATFGVHLKIVGDWTERFRDLLLPPSSQDSEILPFIQSRNYPKLYIDGPFGSPFEESLNYEVSLCVAGGIGVTPFASILNTLLDDWKPYKLRRLYFIWVCRDIQSFRWFADLLCMLHNKFWQENRPDYVNIQLYLSQTDGIQKIIGEKYHALNSRLFIGRPRWKLLFDEIAKYNRGKTVGVFCCGPNSLSKTLHKLSNQNNSYGTRFEYNKESFS
Q: With B1 as the binder, how does the binding read?
A: binds
